These are yes or no findings as the source states them, for the method shown. Binding seen in cells or lysates may run through a third protein. Some entries that bind do so weakly or less than the wild type. For part of these data: Sequences can lack the tags named with a protein. Each block holds one binder with its values, some of them ahead of it.
Columns and labels:
[1] = molecular target: T1, KCTD7-WT (transfected, 293T) (human) (UniProt Q96MP8); experiment: co-IP; anti-FLAG co-IP from 293T cells transfected with the indicated plasmids, Western blot; MG132 (10 μM, 8 hours) before harvesting in Fig. 3E, 3G and 5E
T1 sequence: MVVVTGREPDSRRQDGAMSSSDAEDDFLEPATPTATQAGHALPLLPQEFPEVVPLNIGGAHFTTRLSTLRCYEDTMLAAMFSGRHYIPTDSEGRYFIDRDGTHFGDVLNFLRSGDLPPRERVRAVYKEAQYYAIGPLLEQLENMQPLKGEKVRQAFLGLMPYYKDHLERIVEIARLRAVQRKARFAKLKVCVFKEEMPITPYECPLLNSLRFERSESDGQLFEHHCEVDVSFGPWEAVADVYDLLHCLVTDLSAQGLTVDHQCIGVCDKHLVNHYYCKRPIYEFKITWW

[2] = molecular target: T2, KCTD7 in pBiFC-VC155 (human) (UniProt Q96MP8); experiment: split reporter; BiFC: CLN5 in pBiFC-VN173 and KCTD7 in pBiFC-VC155, cells transfected for 24 hours, fluorescence microscopy and FACS of GFP-positive cells
T2 sequence: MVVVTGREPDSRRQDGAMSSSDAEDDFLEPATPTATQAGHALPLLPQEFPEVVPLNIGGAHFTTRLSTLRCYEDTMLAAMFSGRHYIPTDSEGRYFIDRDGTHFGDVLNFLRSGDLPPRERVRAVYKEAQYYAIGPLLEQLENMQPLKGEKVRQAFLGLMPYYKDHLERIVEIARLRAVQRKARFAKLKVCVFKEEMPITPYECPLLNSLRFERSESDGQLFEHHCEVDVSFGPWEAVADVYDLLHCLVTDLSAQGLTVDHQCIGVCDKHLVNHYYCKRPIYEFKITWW

[3] = molecular target: T1, KCTD7-WT (transfected, 293T) (human); experiment: co-IP; anti-FLAG co-IP from transfected 293T cells; lysates treated with or without PNGase F for 12 hours at 37°C before co-IP
[4] = molecular target: T3, KCTD7-FLAG (endogenous KCTD7 with a knocked-in FLAG tag) (human (endogenous in HeLa)) (UniProt Q96MP8); experiment: co-IP; KCTD7-FLAG knock-in HeLa cells, IP with IgG or anti-FLAG antibody, Western blot of endogenous partners
T3 sequence: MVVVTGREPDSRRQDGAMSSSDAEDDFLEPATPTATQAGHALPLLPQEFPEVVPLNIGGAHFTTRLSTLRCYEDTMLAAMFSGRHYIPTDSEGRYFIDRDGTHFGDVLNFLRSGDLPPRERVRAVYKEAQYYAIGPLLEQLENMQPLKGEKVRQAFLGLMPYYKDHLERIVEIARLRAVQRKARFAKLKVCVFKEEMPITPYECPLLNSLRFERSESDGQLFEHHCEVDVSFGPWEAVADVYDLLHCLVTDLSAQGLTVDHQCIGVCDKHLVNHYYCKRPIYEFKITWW

[5] = molecular target: T3, KCTD7-FLAG (endogenous KCTD7 with a knocked-in FLAG tag) (human (endogenous in HeLa)); experiment: proximity ligation; Duolink in situ PLA in FLAG-KCTD7 KI HeLa cells with anti-FLAG and anti-CLN5 antibodies; single-antibody staining as negative control

B3: CLN5 (transfected, 293T) (protein, UniProt O75503 1-358)
chain: MAQEVDTAQGAEMRRGAGAARGRASWCWALALLWLAVVPGWSRVSGIPSRRHWPVPYKRFDFRPKPDPYCQAKYTFCPTGSPIPVMEGDDDIEVFRLQAPVWEFKYGDLLGHLKIMHDAIGFRSTLTGKNYTMEWYELFQLGNCTFPHLRPEMDAPFWCNQGAACFFEGIDDVHWKENGTLVQVATISGNMFNQMAKWVKQDNETGIYYETWNVKASPEKGAETWFDSYDCSKFVLRTFNKLAEFGAEFKNIETNYTRIFLYSGEPTYLGNETSVFGPTGNKTLGLAIKRFYYPFKPHLPTKEFLLSLLQIFDAVIVHKQFYLFYNFEYWFLPMKFPFIKITYEEIPLPIRNKTLSGL
modifications: N-glycosylated
binding [1]: binds
binding [3]: binds

B4: CLN5 (endogenous, HeLa) (protein, UniProt O75503 1-358)
chain: MAQEVDTAQGAEMRRGAGAARGRASWCWALALLWLAVVPGWSRVSGIPSRRHWPVPYKRFDFRPKPDPYCQAKYTFCPTGSPIPVMEGDDDIEVFRLQAPVWEFKYGDLLGHLKIMHDAIGFRSTLTGKNYTMEWYELFQLGNCTFPHLRPEMDAPFWCNQGAACFFEGIDDVHWKENGTLVQVATISGNMFNQMAKWVKQDNETGIYYETWNVKASPEKGAETWFDSYDCSKFVLRTFNKLAEFGAEFKNIETNYTRIFLYSGEPTYLGNETSVFGPTGNKTLGLAIKRFYYPFKPHLPTKEFLLSLLQIFDAVIVHKQFYLFYNFEYWFLPMKFPFIKITYEEIPLPIRNKTLSGL
modifications: heavily N-glycosylated (about 50 kDa, about 35 kDa after PNGase F)
binding [4]: binds
binding [5]: binds

More lines, now with the values ahead:

binding [1]: binds weakly
B1: CLN6 (transfected, 293T) (protein, UniProt Q9NWW5 1-311)
chain: MEATRRRQHLGATGGPGAQLGASFLQARHGSVSADEAARTAPFHLDLWFYFTLQNWVLDFGRPIAMLVFPLEWFPLNKPSVGDYFHMAYNVITPFLLLKLIERSPRTLPRSITYVSIIIFIMGASIHLVGDSVNHRLLFSGYQHHLSVRENPIIKNLKPETLIDSFELLYYYDEYLGHCMWYIPFFLILFMYFSGCFTASKAESLIPGPALLLVAPSGLYYWYLVTEGQIFILFIFTFFAMLALVLHQKRKRLFLDSNGLFLFSSFALTLLLVALWVAWLWNDPVLRKKYPGVIYVPEPWAFYTLHVSSRH

binding [2]: binds
B2: CLN5 in pBiFC-VN173 (protein, UniProt O75503 1-358)
chain: MAQEVDTAQGAEMRRGAGAARGRASWCWALALLWLAVVPGWSRVSGIPSRRHWPVPYKRFDFRPKPDPYCQAKYTFCPTGSPIPVMEGDDDIEVFRLQAPVWEFKYGDLLGHLKIMHDAIGFRSTLTGKNYTMEWYELFQLGNCTFPHLRPEMDAPFWCNQGAACFFEGIDDVHWKENGTLVQVATISGNMFNQMAKWVKQDNETGIYYETWNVKASPEKGAETWFDSYDCSKFVLRTFNKLAEFGAEFKNIETNYTRIFLYSGEPTYLGNETSVFGPTGNKTLGLAIKRFYYPFKPHLPTKEFLLSLLQIFDAVIVHKQFYLFYNFEYWFLPMKFPFIKITYEEIPLPIRNKTLSGL
